# Measured values from PubChem BioAssay (NCATS).
# By UniProt entry, the sequences of proteins in these tests, tags left out. Where a name states a change or a piece, a line headed by the entry shows the natural chain unless it says otherwise.
# UniProt O15648: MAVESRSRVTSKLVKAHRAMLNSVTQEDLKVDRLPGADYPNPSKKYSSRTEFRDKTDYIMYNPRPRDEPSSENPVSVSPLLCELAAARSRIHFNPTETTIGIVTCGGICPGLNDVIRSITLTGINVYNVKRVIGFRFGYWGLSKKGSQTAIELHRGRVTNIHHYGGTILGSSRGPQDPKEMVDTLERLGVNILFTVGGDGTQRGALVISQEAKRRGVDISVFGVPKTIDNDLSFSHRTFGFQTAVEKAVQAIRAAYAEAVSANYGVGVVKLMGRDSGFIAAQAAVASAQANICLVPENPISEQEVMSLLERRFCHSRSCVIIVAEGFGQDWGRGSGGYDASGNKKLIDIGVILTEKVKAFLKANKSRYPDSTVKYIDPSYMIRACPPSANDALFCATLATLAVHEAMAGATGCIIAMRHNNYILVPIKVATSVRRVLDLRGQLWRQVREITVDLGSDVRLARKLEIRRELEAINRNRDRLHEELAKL
# UniProt Q99549: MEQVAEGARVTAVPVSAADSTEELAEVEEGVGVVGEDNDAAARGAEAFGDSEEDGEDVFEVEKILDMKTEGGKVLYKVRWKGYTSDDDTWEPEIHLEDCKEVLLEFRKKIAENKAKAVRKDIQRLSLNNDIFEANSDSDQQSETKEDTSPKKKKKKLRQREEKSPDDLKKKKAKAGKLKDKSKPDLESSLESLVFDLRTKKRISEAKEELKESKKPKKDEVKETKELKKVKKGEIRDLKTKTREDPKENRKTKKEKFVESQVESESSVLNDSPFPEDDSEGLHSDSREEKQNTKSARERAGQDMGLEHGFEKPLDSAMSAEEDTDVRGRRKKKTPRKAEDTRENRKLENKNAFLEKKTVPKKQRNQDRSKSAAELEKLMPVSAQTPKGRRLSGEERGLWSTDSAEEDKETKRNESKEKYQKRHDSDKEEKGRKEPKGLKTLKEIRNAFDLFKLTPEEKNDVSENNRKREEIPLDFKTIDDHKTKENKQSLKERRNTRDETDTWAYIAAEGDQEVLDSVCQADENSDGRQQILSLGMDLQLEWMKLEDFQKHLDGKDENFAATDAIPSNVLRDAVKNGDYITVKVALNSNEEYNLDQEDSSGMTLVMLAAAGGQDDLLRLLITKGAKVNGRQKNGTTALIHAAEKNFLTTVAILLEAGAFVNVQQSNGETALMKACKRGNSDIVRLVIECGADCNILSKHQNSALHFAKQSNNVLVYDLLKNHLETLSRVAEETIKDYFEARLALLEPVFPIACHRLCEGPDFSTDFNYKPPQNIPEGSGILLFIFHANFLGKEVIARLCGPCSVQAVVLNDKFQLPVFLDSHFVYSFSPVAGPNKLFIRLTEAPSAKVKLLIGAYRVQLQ
# UniProt P39748, whole entry, looked up: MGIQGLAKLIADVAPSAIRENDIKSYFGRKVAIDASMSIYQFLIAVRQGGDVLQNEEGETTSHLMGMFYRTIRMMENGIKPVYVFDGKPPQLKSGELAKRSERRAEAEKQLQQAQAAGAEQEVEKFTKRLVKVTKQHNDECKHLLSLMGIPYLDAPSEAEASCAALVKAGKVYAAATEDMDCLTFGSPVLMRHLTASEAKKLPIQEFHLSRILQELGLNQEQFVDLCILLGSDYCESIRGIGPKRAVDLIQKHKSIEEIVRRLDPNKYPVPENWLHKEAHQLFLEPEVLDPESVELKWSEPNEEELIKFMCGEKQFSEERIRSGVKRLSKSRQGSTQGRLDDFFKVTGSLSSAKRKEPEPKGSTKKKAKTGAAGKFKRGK
# UniProt P83916, whole entry, looked up: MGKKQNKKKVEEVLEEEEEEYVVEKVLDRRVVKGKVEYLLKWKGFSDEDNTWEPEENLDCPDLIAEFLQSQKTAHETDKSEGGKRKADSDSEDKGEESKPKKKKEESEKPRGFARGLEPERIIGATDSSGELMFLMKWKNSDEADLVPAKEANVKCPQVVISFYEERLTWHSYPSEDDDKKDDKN
# UniProt O89049, whole entry, looked up: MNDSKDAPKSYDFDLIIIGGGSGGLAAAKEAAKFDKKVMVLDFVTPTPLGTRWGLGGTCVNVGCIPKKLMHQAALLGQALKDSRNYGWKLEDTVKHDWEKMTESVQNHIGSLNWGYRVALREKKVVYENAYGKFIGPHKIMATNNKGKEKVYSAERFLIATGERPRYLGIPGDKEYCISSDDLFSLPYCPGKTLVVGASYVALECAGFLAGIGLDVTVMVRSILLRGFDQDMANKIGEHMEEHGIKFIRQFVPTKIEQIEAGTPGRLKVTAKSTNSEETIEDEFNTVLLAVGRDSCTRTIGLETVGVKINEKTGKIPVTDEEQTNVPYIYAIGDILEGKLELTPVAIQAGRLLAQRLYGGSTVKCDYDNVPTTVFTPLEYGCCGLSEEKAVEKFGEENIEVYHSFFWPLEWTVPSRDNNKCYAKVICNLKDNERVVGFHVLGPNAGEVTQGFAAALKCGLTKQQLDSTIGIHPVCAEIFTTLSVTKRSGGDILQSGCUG
# Inconclusive results, whose numbers are uncertain, are shown with a selection of clear calls. For some assays here: Where the call is inconclusive, the potency comes from a doubtful curve fit. Active and inactive are the calls of the source. The call rests on the fitted dose curve; in most records, active means well fitted curve in the direction sought with a large enough effect; inconclusive means small, poorly fitted or top-dose-only effect, or another doubt; inactive means no such curve, though single readings can be large; an effect the other way counts as inactive or inconclusive.
# Columns and labels:
# [1] = target: ATP-dependent 6-phosphofructokinase (Trypanosoma brucei brucei) (UniProt O15648); experiment: qHTS Validation Assay to Find Inhibitors of T. brucei phosphofructokinase (AID 485368)
# Outline: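 qHTS format, up to 57 uM. PFK 1.25 nM; F6P 0.5 mM; ATP 0.1 mM; 5 mM MgCl2, 0.01% Tween20, 0.1% BSA; 0.1 M TEA pH 8.0; 45 min RT; ADP-Glo readout; no-enzyme control = full inhibition.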
# [2] = target: M-phase phosphoprotein 8 (Homo sapiens) (UniProt Q99549); experiment: qHTS Validation Assay for Inhibitors for MPP8 Chromodomain Interactions with Methylated Histone Tails (AID 488949); further: nearly all actives have a fitted effect of over 55% in size
# Outline: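 Chemiluminescent proximity assay: histidine-tag capture via nickel acceptor beads, biotin peptide via streptavidin donor beads. Protein and peptide each at 50 nM, pH 7.4, with 30 min incubations at room temperature for complex formation, compound exposure and bead binding.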
# [3] = Quantitative high throughput screen for delayed death inhibitors of the malarial parasite plastid, 96 hour incubation (AID 488745); further: nearly all actives have a fitted effect of over 70% in size
# Outline: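 Luciferase-expressing P. falciparum, infected RBCs 2% Hct/0.1% parasitemia (final); 96 h cpd exposure, 37 C, 5% CO2; RPMI 1640 + 0.5% Albumax, bicarbonate, gentamycin. Readout: luminescence loss = growth inhibition.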
# [4] = Quantitative high throughput screen for delayed death inhibitors of the malarial parasite plastid, 48 hour incubation (AID 488752); further: nearly all actives have a fitted effect of over 65% in size
# Outline: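 Luciferase-expressing P. falciparum in RBCs, 2% Hct, 0.1% parasitemia final; RPMI 1640 + 0.5% Albumax; 48 h, 37 C, 5% CO2; luminescence readout, signal drop = growth inhibition.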
# [5] = target: Flap endonuclease 1 (Homo sapiens) (UniProt P39748); experiment: qHTS Validation Assay for the Inhibitors of Human Flap endonuclease 1 (FEN1) (AID 488816)
# Outline: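 Enzyme reagent 10 nM; cpds pinned; 15 min RT preinc.; substrate 50 nM final; reads t=0 and 15 min; no-enzyme buffer wells as neg. control; normalized data, 4-parameter Hill fit.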
# [6] = target: Chromobox protein homolog 1 (Homo sapiens) (UniProt P83916); experiment: qHTS Validation Assay for Inhibitors of HP1-beta Chromodomain Interactions with Methylated Histone Tails (AID 488953); further: nearly all actives have a fitted effect of over 50% in size
# Outline: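 AlphaScreen proximity readout: streptavidin donor and Ni-chelate acceptor beads, 10 ug/mL final, 30 min dark, RT. Complex of 50 nM HP1-beta and 50 nM b-H3(1-18)K9me3 formed 30 min, then compound-treated 30 min; PBS pH 7.4/0.01% Tween-20.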
# [7] = target: Thioredoxin reductase 1, cytoplasmic (Rattus norvegicus) (UniProt O89049); experiment: qHTS Assay for Substrates of Mammalian Selenoprotein Thioredoxin Reductase 1 (TrxR1) (AID 488772);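 further: a drop in NADPH fluorescence below the no-compound background marks a TrxR1 substrate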
# Outline: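 In this dual-purpose format, potential substrates are identified from the first fluorescence read after selenite addition, not from the 8-minute delta. Rat enzyme is preincubated with NADPH and then with compound at ~22 deg C.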
# [8] = target: Thioredoxin reductase 1, cytoplasmic (Rattus norvegicus) (UniProt O89049); experiment: qHTS Assay for Inhibitors of Mammalian Selenoprotein Thioredoxin Reductase 1 (TrxR1) (AID 488773); conditions: Potency: inhibition; further: nearly all actives have a fitted effect of over 40% in size
# Outline: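 Inhibition is scored from the loss of NADPH fluorescence between first and last reads of an 8-min kinetic run. Selenite (400 uM) was the substrate, added after 15 min compound preincubation at room temperature.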
# Potency means the concentration at half of the fitted maximal effect.
structure (smiles),measurement,setting,value
COc1ccc(C(=O)N2CCCC2=O)cc1,Potency,[1],inactive
same,Potency,[2],inactive
CC(C)NP(=O)(NC(C)C)OP(=O)(NC(C)C)NC(C)C,Potency,[1],"inconclusive: 37.9 µM [activator, single point]"
same,Potency,[3],"inconclusive: 1.85 µM [activator, full curve, poor fit]"
same,Potency,[4],inactive
Oc1ccc2c3c1O[C@H]1c4[nH]c5c(c4C[C@@]4(O)[C@@H](C2)N(CC2CC2)CC[C@]314)C[C@@]1(O)[C@H]2Cc3ccc(O)c4c3[C@@]1(CCN2CC1CC1)[C@H]5O4,Potency,[1],inactive
same,Potency,[4],"inconclusive: 18.5 µM [inhibitor, single point]"
same,Potency,[5],"inconclusive: 11.9 µM [inhibitor, partial curve]"
same,Potency,[2],"inconclusive: 44.7 µM [inhibitor, partial curve]"
same,Potency,[6],"inconclusive: 50.1 µM [inhibitor, partial curve]"
COc1ccc2c(c[n+](C)c3c4cc5c(cc4ccc23)OCO5)c1OC,Potency,[1],"inconclusive: 19 µM [falling, partial curve, poor fit]"
same,Potency,[4],"inconclusive: 1.85 µM [activator, single point]"
same,Potency,[5],"inconclusive: 29.9 µM [inhibitor, single point]"
same,Potency,[6],"inconclusive: 50.1 µM [inhibitor, partial curve]"
Cc1cc2c(C(C)C)c(O)c(O)c(C=O)c2c(O)c1-c1c(C)cc2c(C(C)C)c(O)c(O)c(C=O)c2c1O,Potency,[1],"inconclusive: 37.9 µM [falling, single point]"
same,Potency,[7],"inconclusive: 26.7 µM [inhibitor, partial curve]"
same,Potency,[8],active: 15 µM

# An excerpt from the list above, as a working copy:
structure (smiles),measurement,setting,value
COc1ccc2c(c[n+](C)c3c4cc5c(cc4ccc23)OCO5)c1OC,Potency,[6],"inconclusive: 50.1 µM [inhibitor, partial curve]"
Cc1cc2c(C(C)C)c(O)c(O)c(C=O)c2c(O)c1-c1c(C)cc2c(C(C)C)c(O)c(O)c(C=O)c2c1O,Potency,[1],"inconclusive: 37.9 µM [falling, single point]"
same,Potency,[7],"inconclusive: 26.7 µM [inhibitor, partial curve]"
